Reference: PubChem BioAssay AID488840 (Broad Institute, 2010)
Out of some 1,400 compounds screened, about 45 (3%) were called active.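 The calls were made as follows: active = half-maximal dose of signal decrease from fit no higher than ten times the top valid tested dose; inconclusive = fit invalid, or curve flat with 30 to 70% inhibition; inactive = the rest.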 The list shows a part of the results. Results with a measured potency or affinity are listed apart.

By UniProt entry, the sequences of proteins in these tests, tags left out. Where a name states a change or a piece, a line headed by the entry shows the natural chain unless it says otherwise.
UniProt O75164: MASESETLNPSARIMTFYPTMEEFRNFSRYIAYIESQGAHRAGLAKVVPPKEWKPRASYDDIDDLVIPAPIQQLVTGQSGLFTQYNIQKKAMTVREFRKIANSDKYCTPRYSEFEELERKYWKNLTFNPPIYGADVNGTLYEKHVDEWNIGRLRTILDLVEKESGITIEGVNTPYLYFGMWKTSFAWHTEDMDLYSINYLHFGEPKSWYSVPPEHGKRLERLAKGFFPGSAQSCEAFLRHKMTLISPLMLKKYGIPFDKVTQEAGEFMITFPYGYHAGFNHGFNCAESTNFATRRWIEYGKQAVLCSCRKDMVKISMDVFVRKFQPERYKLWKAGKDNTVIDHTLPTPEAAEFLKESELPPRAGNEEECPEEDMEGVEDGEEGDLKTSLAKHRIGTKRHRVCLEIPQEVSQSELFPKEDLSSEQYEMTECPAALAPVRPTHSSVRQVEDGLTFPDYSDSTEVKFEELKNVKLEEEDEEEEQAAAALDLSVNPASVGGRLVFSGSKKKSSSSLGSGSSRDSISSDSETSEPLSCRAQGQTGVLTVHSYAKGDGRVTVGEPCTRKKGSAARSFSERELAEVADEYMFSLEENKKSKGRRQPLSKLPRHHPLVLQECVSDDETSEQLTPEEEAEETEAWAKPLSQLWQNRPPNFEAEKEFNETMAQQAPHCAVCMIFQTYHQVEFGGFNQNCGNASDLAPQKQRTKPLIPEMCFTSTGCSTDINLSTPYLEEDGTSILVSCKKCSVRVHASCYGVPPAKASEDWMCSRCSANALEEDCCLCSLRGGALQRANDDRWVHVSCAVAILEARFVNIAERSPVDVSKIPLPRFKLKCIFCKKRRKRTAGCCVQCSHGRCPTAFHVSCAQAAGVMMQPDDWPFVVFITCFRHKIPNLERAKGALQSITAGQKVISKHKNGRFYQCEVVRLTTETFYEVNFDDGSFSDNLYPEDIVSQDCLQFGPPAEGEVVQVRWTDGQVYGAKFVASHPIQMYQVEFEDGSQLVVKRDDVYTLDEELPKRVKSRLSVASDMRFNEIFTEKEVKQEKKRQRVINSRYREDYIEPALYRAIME

molecular target: Lysine-specific demethylase 4A (Homo sapiens) (UniProt O75164); experiment: JMJD2A histone demethylase inhibitors, dose response, selectivity assay for GASC-1 inhibitor project, biochemical, DELFIA europium, cherry-picked samples (AID 488840); conditions: GST-JMJD2A(1-420) H3K9me3 demethylation; at 6 µM (top of the series) unless noted;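 also: europium signal reports the dimethyl H3K9 product detected by antibody so inhibitors lower it; 0% = median of neutral control wells and -100% = median of positive control wells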

Activity change, negative = inhibition, inactive:
CN1CCN(c2ccc([N+](=O)[O-])cc2C(=O)N2CCOCC2)CC1 6.45%, CCN(CC)c1ccc(C(=O)OCC(=O)N2CCCC2)cc1 1.81%, C/C(CC(=O)Nc1cccc(Cl)c1Cl)=N\NC(=O)c1ccccc1N 0.587%, O=C(C1CCCCC1)N1CCC(c2nc3c(nnn3Cc3c(F)cccc3Cl)c(=O)[nH]2)CC1 2.48%, C[C@@H]1CN([C@H](C)CO)C(=O)c2cc(NC(=O)Cc3ccccc3)ccc2O[C@H]1CN(C)Cc1ccc(Oc2ccccc2)cc1 14.2%, COc1cc(N)c(C(O)c2nccc3cc(OC)c(OC)cc23)cc1OC (stereo not drawn) 5.45%, COc1ccc(/C=N/Nc2ncnc(Cl)c2N)cc1OC -0.617%, O=C(c1cc2c(s1)CCC2)N1C(=O)c2ccccc2S1(=O)=O -5.3%, Cc1nc2ccc(NC(=O)c3oc4ccc(F)cc4c3C)cc2s1 0.204%, CCC(C)[C@H](NC(=O)NCc1ccccc1Cl)C(=O)O (stereo partly drawn) 1.47%, O=C(Nc1nnc(-c2cc(Cl)ccc2Cl)o1)c1ccco1 -0.944%, Cc1ccccc1N=C1N=C(N)c2ccccc21 4.31%, CN(C)/C=N/c1sccc1C(N)=O -0.776%, Cc1nnc(SCc2nnc(-c3ccccc3)o2)n(N)c1=O -3.23%, Cc1noc(C)c1COc1ccc(C(=O)NCC2CCCO2)cc1 (stereo not drawn) -4.92%, Cc1cccc(C(=O)NCC(c2ccco2)N2CCc3ccccc32)c1 (stereo not drawn) -2.87%, O=C(CSc1ncccn1)NCc1ccc(F)cc1 4.06%, CCO[C@@H]1OC(C(=O)NC2CC2)=C[C@H](c2c[nH]c3ccccc23)[C@H]1CCCO -1.12%, CCOc1ccc(NC(=O)NC(=O)N(C(C)C)S(C)(=O)=O)cc1 0.117%, CCn1c(=O)c(C(=O)NCCc2ccc(Cl)cc2)c(O)c2ccccc21 7.09%, CCCCC(=O)Nc1ccccc1N1CCN(c2ccc(F)cc2)CC1 -3.84%, O=C(Nc1ccccc1N1CCCCC1)c1cccc(F)c1 -2.14%, CCn1c(SCC(=O)c2ccc(C)cc2)nnc1-c1ccoc1C 2.33%, CN(C)CCN(C(=O)/C=C/c1cccs1)c1nc2ccc(F)cc2s1 -0.0863%, O=C(CSc1nc2ccccc2c(=O)n1Cc1ccc(C(=O)NC2CC2)cc1)NCc1ccco1 1.04%, Cc1cccc(N2C(=O)C3C4C=CC(C4)C3C2=O)c1 (stereo not drawn) -2.32%, COc1ccc(NC(=O)C2CCCCN2N)cc1OCC(C)C (stereo not drawn) 5.12%, COc1ccccc1CNC(=O)c1cc(-c2ccccc2)nn1CC1CC(c2cccnc2)=NO1 (stereo not drawn) 1.44%, CC(=O)Nc1ccc2nc(CN3CCC(CO)(CCc4ccccc4)CC3)ccc2c1 1.69%, COc1ccc(-c2nc(C#N)c(NCc3ccc(F)cc3)o2)cc1OC 3.44%, C[C@H](CO)N1C[C@H](C)[C@@H](CN(C)C(=O)Nc2ccc(C(F)(F)F)cc2)Oc2c(NC(=O)Nc3ccc4c(c3)OCO4)cccc2C1=O -0.395%, CC[C@@]1(C(=O)OC)N[C@H](CN(C)C(=O)Nc2ccc(Cl)cc2)[C@@H]2C(=O)N(Cc3ccccc3)C(=O)[C@@H]21 3.72%, O=C(Cn1cnc2c(OCc3ccccc3)ncnc21)NCCN1CCOCC1 0.142%, CN(C)/C=C1\C(=O)NN=C1c1ccccc1 0.566%, COc1ccc2[nH]c(=O)c(CN(CCCN(C)C)C(=O)Nc3ccc(F)cc3)cc2c1 -1.96%, CCC(=O)Nc1ccc(NC(=O)Cc2ccccc2)cn1 1.05%, Cc1cc(C(F)(F)F)nn1C(=O)c1cccnc1Cl -3.32%, Nc1c(C(=O)OCC(=O)Nc2ccc(Cl)cc2[N+](=O)[O-])[nH]c(=O)[nH]c1=O -1.24%, COc1ccc(S(=O)(=O)N(C)C[C@H]2Oc3ccc(NS(=O)(=O)c4cccs4)cc3CC(=O)N([C@H](C)CO)C[C@H]2C)cc1 4.03%, COCCn1c(N)c(C(=O)NCC2CCCO2)c2nc3ccccc3nc21 (stereo not drawn) 5.88%, Cc1cc(C)cc(C(=O)N2CCC(C(N)=O)CC2)c1 -0.587%, CCNC(=S)NC(=NCc1cccnc1)Nc1nc(C)cc(C)n1 9.23%, C=CCn1c(N)c(-c2nc3ccccc3n2C)sc1=S 3.81%, Cc1ccc(S(=O)(=O)N2CCN(C(=O)N3CCOCC3)CC2)cc1C 1.94%, N#Cc1cnc(NOCc2ccc(Cl)cc2)nc1 1.33%, Cc1cccn2c(=O)c(C(=O)NC3CC(C)CC(C)(C)C3)c(O)nc12 (stereo not drawn) -0.897%, O=C(c1cc2ccccc2oc1=O)N1CCN(CCc2ccccc2)CC1 1.84%, NC(=O)C1CCN(c2nc(-c3ccc4c(c3)OCCO4)cs2)CC1 0.679%, N#Cc1cnn(CC2CCCCC2)c1N 2.59%, Fc1ccc(NC(=S)Nc2ccc(Cl)cc2Cl)cc1 2.35%, O=c1c2c(nc3c(-c4cccc5ccccc45)c[nH]n13)CCC2 -0.649%, CCSCC1COC(c2cccn2Cc2ccc(C)cc2)=N1 (stereo not drawn) -4.65%, O=C(COC(=O)Cc1ccccc1F)Nc1ccc(SC(F)F)cc1 -4.57%, O=C(CN1C(=O)NC2(CCCC2)C1=O)Nc1nc(-c2ccccc2)cs1 -5.41%, O=[N+]([O-])c1ccc(N2CCN(S(=O)(=O)c3ccc(Cl)cc3)CC2)cc1NCc1cccnc1 0.661%, C[C@H](CO)N1C[C@H](C)[C@@H](CN(C)Cc2ccc(Cl)c(Cl)c2)Oc2c(NC(=O)c3ccncc3)cccc2C1=O 4.03%, Cc1[nH]n(-c2ccccc2)c(=O)c1N=Nc1nccs1 -5.78%, COC(=O)c1cc(S(=O)(=O)N2CCN(c3ccc(F)cc3)CC2)c[nH]1 -2.52%
